Source: patent US10442791B2, “DNA-PK inhibitors” (Vertex Pharmaceuticals Incorporated, priority 2012, dated 2019)
Some entries share one result that the patent states for a list of compounds. At least one structure is not confirmed: it was looked up by name or label, or the drawing left a doubt.

Amino acid sequences for entries named in this document (tags omitted).
UniProt P78527, whole entry: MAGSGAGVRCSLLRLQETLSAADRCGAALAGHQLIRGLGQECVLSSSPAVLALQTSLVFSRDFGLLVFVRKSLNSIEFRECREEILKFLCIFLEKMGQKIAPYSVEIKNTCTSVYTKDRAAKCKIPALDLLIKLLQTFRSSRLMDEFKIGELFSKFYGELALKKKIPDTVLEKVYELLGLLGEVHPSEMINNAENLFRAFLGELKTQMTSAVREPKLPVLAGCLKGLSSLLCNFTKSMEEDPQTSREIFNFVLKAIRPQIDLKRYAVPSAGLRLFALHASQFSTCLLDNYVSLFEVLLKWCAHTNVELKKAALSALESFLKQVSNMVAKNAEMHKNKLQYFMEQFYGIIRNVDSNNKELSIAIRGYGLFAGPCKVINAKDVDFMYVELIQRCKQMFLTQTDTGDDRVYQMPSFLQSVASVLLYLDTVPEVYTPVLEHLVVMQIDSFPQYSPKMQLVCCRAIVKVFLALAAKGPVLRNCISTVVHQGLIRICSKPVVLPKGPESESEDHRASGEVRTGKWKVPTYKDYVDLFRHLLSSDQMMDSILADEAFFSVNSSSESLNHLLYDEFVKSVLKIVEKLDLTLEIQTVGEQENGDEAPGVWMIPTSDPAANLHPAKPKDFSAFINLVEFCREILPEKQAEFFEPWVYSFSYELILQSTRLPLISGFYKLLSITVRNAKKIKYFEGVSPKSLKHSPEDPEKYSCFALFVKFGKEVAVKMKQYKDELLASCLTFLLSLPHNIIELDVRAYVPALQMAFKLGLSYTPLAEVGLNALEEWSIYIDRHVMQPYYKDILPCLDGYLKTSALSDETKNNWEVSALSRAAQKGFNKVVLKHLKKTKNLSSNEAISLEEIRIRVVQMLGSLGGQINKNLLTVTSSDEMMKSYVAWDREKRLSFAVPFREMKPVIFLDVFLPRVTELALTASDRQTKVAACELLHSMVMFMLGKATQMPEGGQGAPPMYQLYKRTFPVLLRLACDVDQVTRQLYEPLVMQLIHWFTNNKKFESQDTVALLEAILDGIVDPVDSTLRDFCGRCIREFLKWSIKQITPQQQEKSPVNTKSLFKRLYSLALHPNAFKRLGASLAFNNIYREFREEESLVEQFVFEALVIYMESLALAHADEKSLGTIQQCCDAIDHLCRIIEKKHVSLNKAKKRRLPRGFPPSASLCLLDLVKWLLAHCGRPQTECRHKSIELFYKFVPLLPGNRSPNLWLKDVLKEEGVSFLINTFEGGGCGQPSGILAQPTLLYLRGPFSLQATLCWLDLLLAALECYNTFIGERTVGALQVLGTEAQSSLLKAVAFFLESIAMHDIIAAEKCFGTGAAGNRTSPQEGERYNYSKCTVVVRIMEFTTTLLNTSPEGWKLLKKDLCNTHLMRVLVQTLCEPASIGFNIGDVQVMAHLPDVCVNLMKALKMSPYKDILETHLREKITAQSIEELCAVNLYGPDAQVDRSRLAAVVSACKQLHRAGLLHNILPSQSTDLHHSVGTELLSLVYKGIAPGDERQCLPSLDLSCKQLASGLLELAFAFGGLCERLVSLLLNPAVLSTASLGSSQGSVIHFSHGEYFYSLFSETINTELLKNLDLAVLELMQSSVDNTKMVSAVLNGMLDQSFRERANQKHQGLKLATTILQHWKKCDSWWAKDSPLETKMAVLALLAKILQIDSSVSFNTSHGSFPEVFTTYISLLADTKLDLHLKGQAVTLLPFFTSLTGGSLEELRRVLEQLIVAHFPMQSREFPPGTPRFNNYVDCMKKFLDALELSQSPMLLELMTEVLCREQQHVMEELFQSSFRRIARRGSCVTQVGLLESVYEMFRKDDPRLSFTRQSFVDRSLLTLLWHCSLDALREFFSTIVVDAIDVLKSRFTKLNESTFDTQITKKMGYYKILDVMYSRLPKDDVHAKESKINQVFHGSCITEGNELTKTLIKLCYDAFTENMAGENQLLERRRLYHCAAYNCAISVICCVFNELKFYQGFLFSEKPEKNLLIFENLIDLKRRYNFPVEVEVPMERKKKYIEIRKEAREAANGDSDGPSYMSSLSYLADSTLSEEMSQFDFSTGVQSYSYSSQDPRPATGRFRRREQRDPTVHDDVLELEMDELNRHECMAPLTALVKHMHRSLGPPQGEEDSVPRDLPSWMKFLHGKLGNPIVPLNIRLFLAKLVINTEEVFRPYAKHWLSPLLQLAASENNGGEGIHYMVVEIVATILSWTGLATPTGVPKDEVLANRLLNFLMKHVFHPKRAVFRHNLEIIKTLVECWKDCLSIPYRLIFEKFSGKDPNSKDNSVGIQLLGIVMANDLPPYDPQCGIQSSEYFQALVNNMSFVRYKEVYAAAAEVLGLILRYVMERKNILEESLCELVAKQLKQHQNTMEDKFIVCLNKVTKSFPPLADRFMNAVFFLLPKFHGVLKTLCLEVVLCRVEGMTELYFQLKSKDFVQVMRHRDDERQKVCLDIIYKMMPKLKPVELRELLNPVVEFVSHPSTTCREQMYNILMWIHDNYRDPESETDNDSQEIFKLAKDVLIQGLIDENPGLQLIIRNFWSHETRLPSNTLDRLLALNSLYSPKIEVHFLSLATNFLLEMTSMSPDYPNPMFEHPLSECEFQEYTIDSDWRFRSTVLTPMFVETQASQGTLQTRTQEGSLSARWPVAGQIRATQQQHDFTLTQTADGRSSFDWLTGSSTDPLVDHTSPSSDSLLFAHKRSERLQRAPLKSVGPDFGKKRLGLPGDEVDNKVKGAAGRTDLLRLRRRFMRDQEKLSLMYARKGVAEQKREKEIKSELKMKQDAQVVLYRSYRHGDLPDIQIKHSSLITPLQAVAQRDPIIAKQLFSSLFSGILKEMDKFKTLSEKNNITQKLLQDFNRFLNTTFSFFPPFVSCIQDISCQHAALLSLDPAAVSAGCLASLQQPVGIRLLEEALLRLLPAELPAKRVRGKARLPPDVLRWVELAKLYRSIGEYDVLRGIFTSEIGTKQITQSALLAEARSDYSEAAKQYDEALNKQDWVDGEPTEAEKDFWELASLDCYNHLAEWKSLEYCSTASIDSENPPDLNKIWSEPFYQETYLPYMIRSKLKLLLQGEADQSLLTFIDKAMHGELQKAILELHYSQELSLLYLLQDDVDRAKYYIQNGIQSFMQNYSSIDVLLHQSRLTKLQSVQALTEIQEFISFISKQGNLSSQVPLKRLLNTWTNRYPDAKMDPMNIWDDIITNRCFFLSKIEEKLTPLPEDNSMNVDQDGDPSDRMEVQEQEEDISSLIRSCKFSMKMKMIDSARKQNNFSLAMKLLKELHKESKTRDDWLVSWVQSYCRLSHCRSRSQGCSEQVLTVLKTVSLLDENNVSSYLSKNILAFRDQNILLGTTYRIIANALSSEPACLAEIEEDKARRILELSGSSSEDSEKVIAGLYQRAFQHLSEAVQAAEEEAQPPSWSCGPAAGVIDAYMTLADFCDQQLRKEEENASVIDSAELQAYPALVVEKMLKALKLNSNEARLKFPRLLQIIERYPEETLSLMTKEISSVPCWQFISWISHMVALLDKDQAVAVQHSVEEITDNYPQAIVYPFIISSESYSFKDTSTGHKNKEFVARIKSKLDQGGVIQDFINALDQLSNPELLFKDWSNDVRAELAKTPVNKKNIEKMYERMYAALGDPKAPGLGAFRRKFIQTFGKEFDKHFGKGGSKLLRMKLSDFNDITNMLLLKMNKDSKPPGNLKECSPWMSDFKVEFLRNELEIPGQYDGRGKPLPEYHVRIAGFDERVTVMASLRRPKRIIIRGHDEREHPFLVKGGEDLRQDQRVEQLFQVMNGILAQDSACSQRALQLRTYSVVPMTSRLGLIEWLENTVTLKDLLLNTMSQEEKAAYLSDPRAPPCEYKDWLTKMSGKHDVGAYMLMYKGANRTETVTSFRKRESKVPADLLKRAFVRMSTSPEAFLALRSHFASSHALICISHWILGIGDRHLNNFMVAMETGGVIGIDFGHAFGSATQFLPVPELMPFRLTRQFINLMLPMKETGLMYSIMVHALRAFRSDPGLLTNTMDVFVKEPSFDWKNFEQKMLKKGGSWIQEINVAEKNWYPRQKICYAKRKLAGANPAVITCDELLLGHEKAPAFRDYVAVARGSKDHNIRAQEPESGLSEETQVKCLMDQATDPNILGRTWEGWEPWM

target: DNA-PK (Homo sapiens, UniProt P78527); test: DNA-PK inhibition assay (radiometric 33P-ATP kinase assay); assay type: biochemical; settings: 100 μM ATP; competitive tight-binding fit

Ki, ≤ 300 nM:
CNC(=O)c1c(N2CCOCC2)cnc2c([C@H](C)CNc3cc(-c4ccc(C)nc4)ncn3)cccc12 [Compound 767]
CNC(=O)c1ccnc2c([C@H](C)CNc3cc(-c4ccc(OCC5CC5)nc4)ncn3)ccc(F)c12 [Compound 904]
C[C@H](CNc1cc(-c2cnc(NCCO)nc2)ncn1)c1ccnc2c1OCCO2 [Compound 457]
CC(CNc1cc(-c2ccc(F)nc2)ncn1)c1cccc2c1OCC2 (stereo not shown) [Compound 371]
CCOc1ccccc1CCNc1cc(-c2ccc(OC3CCN(C)CC3)nc2)ncn1 [Compound 95]
CNC(=O)c1ccnc2c([C@H](C)CNc3cc(-c4ccc(F)nc4)ncn3)cccc12 [Compound 603]
COc1cscc1C(C)CNc1cc(-c2ccc(N3CCN(C)CC3)nc2)ncn1 (stereo not shown) [Compound 146]
CNC(=O)c1ccnc2c([C@H](C)CNc3cc(-c4cnc(OC)c(OC)c4)ncn3)cccc12 [Compound 592]
CNc1ncc(-c2cc(NC[C@@H](C)c3ccnc4c3OCCO4)ncn2)cn1 [Compound 462, (S)—N^6-(2-(2,3-dihydro-[1,4]dioxino[2,3-b]pyridin-8-yl)propyl)-N^2′-methyl-[4,5′-bipyrimidine]-2′,6-diamine]
CNC(=O)c1c(C#N)cnc2c([C@H](C)CNc3cc(-c4ccc(C)nc4)ncn3)cccc12 [Compound 766]
COc1cc(C(=O)NC2CC2)ccc1C(C)CNc1cc(-c2ccc(C)nc2)ncn1 (stereo not shown) [Compound 158]
COc1sc(C(N)=O)cc1C(C)CNc1cc(-c2ccc(C)nc2)ncn1 (stereo not shown) [Compound 305]
COc1ccc(C(C)CNc2cc(-c3ccc(C)nc3)ncn2)c(N)n1 (stereo not shown) [Compound 642]
CNC(=O)c1ccnc2c([C@H](C)CNc3cc(-c4ccc(OCCN5CCCC5)cc4)ncn3)cccc12 [Compound 727]
CNC(=O)c1c(F)cnc2c([C@H](C)CNc3cc(-c4ccc(NC5CCN(CC(F)(F)F)CC5)nc4)ncn3)cccc12 [Compound 1086]
CCNc1ccc(-c2cc(NC[C@@H](C)c3ccnc4c3OCC4)ncn2)cn1 [Compound 486]
Cc1ncc(-c2cc(NC[C@@H](C)c3cccc4c(=O)n(C)cnc34)ncn2)cn1 [Compound 697]
CNCCCNc1cc(-c2cc(NC[C@@H](C)c3ccccc3OC)ncn2)ccn1 [Compound 209]
Cc1ccc(-c2cc(NCC(C)c3cccc4cccnc34)ncn2)cn1 (stereo not shown) [Compound 235]
C[C@H](CNc1cc(-c2ccc(C(=O)NCCC#N)cc2)ncn1)c1ccnc2c1OCCO2 [Compound 491]
COc1cc(C(N)=O)ccc1C(C)CNc1cc(-c2ccc(N3CCN(C(C)=O)CC3)nc2)ncn1 (stereo not shown) [Compound 131]
CNC(=O)c1ccc(C(C)CNc2cc(-c3cnc4c(cnn4CC(=O)OC)c3)ncn2)c(OC)c1 (stereo not shown) [Compound 273]
CCNC(=O)c1cc(-c2cc(NC[C@@H](C)c3ccnc4c3OCCO4)ncn2)cnc1OC [Compound 517]
CNC(=O)c1ccnc2c([C@H](C)CNc3cc(-c4cnc(N5CCN(CC(F)(F)F)CC5)nc4)ncn3)cccc12 [Compound 781]
Cc1ccc(-c2cc(NCC(C)c3cccc4nc(C)c(C)nc34)ncn2)cn1 (stereo not shown) [Compound 434]
Cc1ccc(-c2cc(NC[C@@H](C)c3cccc4c(C(=O)NC(C)CO)ccnc34)ncn2)cn1 (stereo partly shown) [Compound 695]
COc1ccsc1C(C)CNc1cc(-c2ccc(N3CCN(C)CC3)nc2)ncn1 (stereo not shown) [Compound 234]
CCOc1cc(-c2cc(NC[C@@H](C)c3cccc4c(C(=O)NC)c(F)cnc34)ncn2)cnc1OCC [Compound 897]
Cc1ccc(-c2cc(NCC(C)c3cccc4c3OCCO4)ncn2)cn1 (stereo not shown) [Compound 447]
CNC(=O)c1ccnc2c([C@H](C)CNc3cc(-c4ccc(NS(C)(=O)=O)cc4)ncn3)cccc12 [Compound 680]
CNC(=O)c1ccnc2c([C@H](C)CNc3cc(-c4cnc(NCC(F)(F)F)nc4)ncn3)ccc(F)c12 [Compound 1054]
CNC(=O)c1ccnc2c([C@H](C)CNc3cc(-c4ccc(NC5CCN(CC(F)(F)F)CC5)nc4)ncn3)cccc12 [Compound 1085]
COc1cc(N)ccc1C(C)CNc1cc(-c2ccc(C)nc2)ncn1 (stereo not shown) [Compound 178]
CNC(=O)c1ccnc2c([C@H](C)CNc3cc(-c4ccc(N5Cc6ccncc6C5)nc4)ncn3)cccc12 [Compound 718]
COc1ccccc1[C@H](C)CNc1cc(-c2ccc(NC(CO)CO)nc2)ncn1 [Compound 199]
Cc1ccc(-c2cc(NCC(C)c3ccccc3OC3CCCCC3)ncn2)cn1 (stereo not shown) [Compound 183]
COc1ccccc1CCNc1cc(-c2cnc3c(cnn3C)c2)ncn1 [Compound 42]
CNC(=O)c1ccnc2c([C@H](C)CNc3cc(-c4ccc(C(C)(C)C#N)cc4)ncn3)cccc12 [Compound 679]
COc1cc(C(=O)NC(C)C)ccc1C(C)CNc1cc(-c2ccc(C)nc2)ncn1 (stereo not shown) [Compound 160]
C[C@H](CNc1cc(-c2cc(F)c3ncccc3c2)ncn1)c1ccnc2c1OCCO2 [Compound 556]
